PMC9504280
These are yes or no findings as the source states them, for the method shown. In cells and extracts the contact can be indirect. Binding can be weak; no strength is given.

By UniProt entry, the sequences of proteins in these tests, tags left out. Where a name states a change or a piece, a line headed by the entry shows the natural chain unless it says otherwise. Residues count along the entry.
UniProt P38647, residues 47-679: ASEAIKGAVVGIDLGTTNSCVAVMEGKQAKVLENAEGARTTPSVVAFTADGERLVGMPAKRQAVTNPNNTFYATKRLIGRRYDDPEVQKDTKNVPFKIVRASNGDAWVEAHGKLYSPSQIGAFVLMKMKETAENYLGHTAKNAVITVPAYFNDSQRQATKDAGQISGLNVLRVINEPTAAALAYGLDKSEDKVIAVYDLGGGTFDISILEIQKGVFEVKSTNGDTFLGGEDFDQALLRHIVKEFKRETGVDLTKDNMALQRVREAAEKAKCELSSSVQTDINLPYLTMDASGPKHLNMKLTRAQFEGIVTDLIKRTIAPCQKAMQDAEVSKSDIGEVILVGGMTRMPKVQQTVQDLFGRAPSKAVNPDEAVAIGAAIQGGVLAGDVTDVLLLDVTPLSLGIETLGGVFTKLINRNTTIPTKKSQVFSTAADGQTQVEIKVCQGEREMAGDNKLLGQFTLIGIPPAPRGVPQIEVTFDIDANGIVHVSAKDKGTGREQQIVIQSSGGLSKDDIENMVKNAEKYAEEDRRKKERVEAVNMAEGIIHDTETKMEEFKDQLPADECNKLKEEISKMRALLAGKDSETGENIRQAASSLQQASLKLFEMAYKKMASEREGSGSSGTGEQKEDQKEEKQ
UniProt P11881: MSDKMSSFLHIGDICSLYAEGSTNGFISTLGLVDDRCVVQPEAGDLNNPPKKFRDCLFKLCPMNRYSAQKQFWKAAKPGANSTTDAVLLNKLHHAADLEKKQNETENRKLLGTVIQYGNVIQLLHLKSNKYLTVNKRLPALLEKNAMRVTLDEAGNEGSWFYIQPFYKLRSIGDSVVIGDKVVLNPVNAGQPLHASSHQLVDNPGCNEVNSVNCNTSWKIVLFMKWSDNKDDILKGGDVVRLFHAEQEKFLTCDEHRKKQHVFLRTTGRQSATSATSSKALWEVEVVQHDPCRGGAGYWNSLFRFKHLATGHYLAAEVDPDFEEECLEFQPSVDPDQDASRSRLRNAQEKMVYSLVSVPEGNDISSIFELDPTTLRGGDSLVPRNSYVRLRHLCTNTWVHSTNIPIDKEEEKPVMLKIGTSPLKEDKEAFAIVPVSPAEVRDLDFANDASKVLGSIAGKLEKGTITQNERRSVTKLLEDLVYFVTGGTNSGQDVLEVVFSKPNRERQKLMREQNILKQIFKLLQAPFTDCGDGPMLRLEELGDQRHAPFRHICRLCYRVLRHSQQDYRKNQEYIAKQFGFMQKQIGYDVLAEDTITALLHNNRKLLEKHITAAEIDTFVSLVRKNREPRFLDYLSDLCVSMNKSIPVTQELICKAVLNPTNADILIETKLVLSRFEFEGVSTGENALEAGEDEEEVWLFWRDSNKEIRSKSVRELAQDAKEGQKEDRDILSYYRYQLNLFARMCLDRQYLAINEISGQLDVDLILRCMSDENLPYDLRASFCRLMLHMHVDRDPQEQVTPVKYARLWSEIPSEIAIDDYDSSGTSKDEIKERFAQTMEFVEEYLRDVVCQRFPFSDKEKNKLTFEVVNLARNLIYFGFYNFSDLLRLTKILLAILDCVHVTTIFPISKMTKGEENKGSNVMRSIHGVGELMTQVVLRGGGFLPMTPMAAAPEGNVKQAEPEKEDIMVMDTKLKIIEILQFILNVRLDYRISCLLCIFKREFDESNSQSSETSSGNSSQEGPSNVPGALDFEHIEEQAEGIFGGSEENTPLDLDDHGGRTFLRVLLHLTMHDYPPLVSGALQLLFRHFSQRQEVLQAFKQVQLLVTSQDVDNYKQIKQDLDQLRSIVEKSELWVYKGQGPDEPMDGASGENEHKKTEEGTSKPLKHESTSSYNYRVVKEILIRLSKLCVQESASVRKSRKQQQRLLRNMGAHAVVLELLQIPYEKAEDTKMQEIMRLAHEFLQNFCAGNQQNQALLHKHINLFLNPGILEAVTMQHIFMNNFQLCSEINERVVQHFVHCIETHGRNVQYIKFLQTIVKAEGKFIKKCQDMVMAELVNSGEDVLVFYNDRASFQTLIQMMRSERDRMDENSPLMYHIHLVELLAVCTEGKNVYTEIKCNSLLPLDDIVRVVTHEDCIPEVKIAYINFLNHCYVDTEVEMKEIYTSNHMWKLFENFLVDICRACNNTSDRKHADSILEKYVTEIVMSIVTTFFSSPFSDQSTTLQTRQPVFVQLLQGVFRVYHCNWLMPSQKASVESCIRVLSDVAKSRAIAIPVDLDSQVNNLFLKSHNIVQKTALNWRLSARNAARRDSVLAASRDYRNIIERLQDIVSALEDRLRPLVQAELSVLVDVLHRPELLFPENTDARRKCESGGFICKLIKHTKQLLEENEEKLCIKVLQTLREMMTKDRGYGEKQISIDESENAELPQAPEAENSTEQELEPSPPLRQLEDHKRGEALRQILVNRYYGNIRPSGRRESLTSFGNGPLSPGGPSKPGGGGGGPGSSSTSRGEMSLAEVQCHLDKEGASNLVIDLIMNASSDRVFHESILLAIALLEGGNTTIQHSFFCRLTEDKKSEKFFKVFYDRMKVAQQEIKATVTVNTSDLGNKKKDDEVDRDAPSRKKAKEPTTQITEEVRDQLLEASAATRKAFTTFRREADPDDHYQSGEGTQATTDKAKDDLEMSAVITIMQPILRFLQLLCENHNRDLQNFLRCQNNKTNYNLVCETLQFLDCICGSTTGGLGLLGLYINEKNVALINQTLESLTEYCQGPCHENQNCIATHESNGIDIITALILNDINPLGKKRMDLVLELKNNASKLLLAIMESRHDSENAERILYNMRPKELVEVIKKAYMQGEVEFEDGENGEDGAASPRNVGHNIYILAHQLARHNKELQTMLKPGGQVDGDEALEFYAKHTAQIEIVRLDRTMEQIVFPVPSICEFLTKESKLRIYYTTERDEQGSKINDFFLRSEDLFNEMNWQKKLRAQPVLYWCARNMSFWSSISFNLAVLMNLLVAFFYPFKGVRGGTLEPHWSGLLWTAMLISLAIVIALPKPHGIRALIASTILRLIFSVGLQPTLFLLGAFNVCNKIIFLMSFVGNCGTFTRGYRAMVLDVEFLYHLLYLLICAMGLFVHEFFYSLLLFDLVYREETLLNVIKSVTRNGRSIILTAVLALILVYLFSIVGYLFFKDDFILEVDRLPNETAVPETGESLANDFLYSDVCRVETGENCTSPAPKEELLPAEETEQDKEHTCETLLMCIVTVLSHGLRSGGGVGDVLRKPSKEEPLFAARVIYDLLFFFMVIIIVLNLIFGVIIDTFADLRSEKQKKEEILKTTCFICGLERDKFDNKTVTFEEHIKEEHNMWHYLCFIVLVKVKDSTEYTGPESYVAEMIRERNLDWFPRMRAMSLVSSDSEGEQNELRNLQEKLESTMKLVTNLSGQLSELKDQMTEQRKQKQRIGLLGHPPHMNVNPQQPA
UniProt Q60932: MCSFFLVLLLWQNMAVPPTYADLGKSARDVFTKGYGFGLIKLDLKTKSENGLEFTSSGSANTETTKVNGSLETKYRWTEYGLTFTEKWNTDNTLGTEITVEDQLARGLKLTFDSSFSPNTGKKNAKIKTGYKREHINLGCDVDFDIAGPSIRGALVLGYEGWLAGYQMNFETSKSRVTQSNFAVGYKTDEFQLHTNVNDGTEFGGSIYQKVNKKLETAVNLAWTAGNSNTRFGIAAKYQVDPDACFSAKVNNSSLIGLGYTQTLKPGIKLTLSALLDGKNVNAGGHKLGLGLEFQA

Assays:
[1] = biological target: glucose-regulated protein 75 (GRP75) (mouse (endogenous in 3T3-L1)) (UniProt P38647); experiment: co-IP; reciprocal: anti-GRP75 antibody on 1 mg total lysate of 3T3-L1 cells before (day 0) and 7 days after adipogenic differentiation, 4°C overnight, Mag Sepharose Xtra beads, washed with TBST (50 mM Tris-HCl, 150 mM NaCl, 0.1% Tween-20, pH 7.4), eluted with 2% SDS; Western blot for IP3R1 and …
[2] = biological target: inositol 1,4,5-triphosphate receptor 1 (IP3R1) (mouse (endogenous in 3T3-L1)) (UniProt P11881); experiment: co-IP; anti-IP3R1 antibody on 1 mg total lysate of 3T3-L1 cells before (day 0) and 7 days after adipogenic differentiation, 4°C overnight, Mag Sepharose Xtra beads, washed with TBST (50 mM Tris-HCl, 150 mM NaCl, 0.1% Tween-20, pH 7.4), eluted with 2% SDS; Western blot for GRP75 and VDAC1

binding [1]: binds
binding [2]: binds
Substance: voltage-dependent anion channel 1 (VDAC1) (from UniProt Q60932)
